Data as given in patent publication US10197581B2, “Vitamin D assays” (Enzo Life Sciences, Inc., priority 2013, dated 2019).

Settings: control samples containing no 25OHD

Compound | concentration with detrimental effects to the assay signal [%] | concentrations very well tolerated | concentrations with minor effects of decreasing signal of the assay
methyl β-cyclodextrin | ≥ 0.0125 |  | 
O=C([O-])c1ccccc1O.[Na+] [sodium salicylate] | ≥ 4 | below 1% | 1-4%
